Consider three molecules from PMC10112802.

The chains behind the UniProt entries cited, without tags or fusion partners.
UniProt Q86WV6: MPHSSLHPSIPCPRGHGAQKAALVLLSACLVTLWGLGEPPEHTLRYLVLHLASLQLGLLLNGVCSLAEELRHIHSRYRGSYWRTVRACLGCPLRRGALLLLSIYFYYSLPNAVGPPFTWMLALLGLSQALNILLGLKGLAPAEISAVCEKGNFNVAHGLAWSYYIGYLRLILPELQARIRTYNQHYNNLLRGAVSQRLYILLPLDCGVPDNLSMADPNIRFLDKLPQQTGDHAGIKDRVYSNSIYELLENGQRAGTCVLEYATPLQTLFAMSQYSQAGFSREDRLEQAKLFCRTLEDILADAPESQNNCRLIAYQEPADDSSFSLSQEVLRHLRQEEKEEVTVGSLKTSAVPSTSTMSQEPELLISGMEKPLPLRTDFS
UniProt Q92793: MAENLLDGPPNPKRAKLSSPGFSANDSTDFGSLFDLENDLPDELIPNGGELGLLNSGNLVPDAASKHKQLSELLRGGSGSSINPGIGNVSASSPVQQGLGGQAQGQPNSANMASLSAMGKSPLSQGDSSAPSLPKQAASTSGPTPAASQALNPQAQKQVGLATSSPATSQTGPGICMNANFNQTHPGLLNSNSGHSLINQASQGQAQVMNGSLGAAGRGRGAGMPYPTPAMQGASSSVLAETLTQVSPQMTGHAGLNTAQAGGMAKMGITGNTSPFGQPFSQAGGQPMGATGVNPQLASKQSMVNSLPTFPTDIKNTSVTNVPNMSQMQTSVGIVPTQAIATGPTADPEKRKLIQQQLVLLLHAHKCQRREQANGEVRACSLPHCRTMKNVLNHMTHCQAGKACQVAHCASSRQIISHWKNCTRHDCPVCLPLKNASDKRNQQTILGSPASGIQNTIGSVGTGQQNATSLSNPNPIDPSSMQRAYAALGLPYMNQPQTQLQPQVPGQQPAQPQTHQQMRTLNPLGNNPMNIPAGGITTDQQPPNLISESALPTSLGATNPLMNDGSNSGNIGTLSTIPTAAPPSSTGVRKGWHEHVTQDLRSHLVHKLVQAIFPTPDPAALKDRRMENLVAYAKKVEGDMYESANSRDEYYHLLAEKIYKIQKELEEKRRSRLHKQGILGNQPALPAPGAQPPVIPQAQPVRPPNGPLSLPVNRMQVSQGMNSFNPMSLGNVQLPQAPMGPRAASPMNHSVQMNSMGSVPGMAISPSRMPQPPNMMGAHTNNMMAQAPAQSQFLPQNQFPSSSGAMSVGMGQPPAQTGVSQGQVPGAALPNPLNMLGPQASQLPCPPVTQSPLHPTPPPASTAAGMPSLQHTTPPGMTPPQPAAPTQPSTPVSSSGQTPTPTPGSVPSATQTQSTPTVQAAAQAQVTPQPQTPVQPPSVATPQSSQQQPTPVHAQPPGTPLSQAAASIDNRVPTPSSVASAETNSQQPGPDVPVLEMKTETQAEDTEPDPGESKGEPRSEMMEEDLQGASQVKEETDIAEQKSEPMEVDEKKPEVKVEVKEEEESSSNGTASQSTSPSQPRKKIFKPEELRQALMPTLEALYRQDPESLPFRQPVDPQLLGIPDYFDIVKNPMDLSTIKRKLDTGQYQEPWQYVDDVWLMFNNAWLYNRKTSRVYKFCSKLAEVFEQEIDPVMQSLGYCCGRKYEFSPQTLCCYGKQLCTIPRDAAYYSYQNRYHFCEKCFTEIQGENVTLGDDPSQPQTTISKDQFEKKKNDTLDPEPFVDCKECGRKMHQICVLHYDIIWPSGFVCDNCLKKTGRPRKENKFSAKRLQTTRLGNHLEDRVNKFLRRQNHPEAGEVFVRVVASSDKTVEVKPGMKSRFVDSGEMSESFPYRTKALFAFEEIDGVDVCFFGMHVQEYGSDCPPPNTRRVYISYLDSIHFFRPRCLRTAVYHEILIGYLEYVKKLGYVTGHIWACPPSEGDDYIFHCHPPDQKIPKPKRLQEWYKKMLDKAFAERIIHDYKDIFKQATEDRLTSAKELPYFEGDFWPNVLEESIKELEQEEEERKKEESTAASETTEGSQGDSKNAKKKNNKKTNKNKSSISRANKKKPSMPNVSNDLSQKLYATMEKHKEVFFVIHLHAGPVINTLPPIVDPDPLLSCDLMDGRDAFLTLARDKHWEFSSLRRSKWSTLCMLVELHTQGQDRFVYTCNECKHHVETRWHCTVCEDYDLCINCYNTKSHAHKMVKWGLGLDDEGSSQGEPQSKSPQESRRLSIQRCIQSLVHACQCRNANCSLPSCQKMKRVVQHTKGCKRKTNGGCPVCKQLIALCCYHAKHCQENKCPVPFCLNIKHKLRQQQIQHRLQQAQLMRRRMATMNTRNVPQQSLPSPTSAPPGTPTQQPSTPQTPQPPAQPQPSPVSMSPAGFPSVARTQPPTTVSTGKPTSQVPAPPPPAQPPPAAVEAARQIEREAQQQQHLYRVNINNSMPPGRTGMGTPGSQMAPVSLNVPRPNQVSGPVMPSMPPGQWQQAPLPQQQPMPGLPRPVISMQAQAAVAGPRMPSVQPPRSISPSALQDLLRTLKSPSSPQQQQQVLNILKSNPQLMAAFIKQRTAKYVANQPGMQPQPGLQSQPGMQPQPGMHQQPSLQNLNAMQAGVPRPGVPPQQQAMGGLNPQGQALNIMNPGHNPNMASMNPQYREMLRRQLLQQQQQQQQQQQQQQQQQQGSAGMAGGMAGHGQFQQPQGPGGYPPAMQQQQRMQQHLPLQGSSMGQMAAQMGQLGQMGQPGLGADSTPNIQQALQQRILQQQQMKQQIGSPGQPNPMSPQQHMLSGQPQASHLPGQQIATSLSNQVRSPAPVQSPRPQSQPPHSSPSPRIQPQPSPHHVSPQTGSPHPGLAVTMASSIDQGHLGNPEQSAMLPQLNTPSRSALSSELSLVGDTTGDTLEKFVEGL
UniProt Q09472: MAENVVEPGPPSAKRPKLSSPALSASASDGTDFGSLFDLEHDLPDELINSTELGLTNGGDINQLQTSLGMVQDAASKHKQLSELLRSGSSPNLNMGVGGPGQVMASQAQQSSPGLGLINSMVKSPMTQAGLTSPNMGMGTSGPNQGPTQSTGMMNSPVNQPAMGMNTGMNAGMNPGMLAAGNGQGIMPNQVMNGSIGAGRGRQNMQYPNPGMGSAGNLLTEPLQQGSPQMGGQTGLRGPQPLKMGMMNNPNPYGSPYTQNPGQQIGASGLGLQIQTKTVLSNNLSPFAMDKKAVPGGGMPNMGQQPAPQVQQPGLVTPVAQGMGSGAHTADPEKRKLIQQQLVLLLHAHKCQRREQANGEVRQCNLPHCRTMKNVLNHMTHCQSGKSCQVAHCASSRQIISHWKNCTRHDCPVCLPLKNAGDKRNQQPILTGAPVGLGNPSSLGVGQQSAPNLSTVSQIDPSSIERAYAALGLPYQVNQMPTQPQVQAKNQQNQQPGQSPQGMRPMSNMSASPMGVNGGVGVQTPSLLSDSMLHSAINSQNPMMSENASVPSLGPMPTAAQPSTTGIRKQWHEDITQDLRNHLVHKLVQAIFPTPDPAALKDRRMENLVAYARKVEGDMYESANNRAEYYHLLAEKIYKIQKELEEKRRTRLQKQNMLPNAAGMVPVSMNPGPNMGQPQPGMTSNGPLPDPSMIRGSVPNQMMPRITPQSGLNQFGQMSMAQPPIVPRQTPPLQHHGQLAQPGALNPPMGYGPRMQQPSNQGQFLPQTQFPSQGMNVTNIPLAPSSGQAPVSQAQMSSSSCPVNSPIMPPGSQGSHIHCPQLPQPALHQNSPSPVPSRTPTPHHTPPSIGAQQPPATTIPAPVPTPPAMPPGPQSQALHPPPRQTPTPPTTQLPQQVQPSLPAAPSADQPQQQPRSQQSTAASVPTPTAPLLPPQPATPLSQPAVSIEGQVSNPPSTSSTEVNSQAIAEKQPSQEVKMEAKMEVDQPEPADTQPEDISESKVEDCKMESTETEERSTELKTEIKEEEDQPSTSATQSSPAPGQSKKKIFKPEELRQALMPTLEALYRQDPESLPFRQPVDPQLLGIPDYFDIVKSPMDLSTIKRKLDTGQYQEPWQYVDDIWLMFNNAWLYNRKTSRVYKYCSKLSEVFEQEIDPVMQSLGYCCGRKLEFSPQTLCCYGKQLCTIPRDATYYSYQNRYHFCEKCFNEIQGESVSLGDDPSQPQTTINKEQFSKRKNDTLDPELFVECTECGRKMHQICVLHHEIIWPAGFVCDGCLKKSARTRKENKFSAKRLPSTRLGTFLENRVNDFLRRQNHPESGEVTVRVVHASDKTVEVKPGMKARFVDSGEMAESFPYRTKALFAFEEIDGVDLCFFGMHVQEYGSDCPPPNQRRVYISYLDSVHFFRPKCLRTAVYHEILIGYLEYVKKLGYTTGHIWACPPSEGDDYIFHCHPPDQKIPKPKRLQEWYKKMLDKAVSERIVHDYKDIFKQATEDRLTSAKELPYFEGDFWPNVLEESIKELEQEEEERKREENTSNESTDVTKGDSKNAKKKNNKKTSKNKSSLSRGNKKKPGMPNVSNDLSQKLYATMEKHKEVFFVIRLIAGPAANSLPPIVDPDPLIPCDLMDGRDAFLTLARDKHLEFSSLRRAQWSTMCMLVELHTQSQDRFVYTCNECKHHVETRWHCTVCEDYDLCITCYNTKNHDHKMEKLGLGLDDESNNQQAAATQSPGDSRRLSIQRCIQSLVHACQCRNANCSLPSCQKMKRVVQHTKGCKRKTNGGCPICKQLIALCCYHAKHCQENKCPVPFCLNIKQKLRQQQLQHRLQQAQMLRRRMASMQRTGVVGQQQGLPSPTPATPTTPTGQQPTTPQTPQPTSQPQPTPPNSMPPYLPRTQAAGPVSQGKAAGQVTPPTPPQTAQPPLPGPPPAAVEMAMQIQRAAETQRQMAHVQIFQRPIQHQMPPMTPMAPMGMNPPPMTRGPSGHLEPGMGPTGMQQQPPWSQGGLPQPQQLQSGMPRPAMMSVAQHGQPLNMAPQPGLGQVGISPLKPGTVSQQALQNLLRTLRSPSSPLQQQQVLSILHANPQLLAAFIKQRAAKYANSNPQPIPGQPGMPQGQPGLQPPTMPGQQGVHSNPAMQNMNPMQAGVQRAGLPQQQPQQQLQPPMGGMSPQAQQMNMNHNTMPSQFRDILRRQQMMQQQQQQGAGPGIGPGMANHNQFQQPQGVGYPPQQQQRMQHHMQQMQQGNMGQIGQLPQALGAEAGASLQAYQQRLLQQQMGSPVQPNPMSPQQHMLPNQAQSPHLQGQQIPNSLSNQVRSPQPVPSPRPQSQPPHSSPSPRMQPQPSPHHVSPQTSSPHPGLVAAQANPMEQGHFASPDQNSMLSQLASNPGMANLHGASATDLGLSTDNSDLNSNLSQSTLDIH

No constants are given. Whether binding was seen depends on the method and setting. In cells and extracts the contact can be indirect. Some entries that bind do so weakly or less than the wild type. For some assays here: Sequences can lack the tags named with a protein.

Test [1] concerns the target T1, Myc-tagged IRF3 (IRF3-Myc) (UniProt Q14653).
T1 sequence: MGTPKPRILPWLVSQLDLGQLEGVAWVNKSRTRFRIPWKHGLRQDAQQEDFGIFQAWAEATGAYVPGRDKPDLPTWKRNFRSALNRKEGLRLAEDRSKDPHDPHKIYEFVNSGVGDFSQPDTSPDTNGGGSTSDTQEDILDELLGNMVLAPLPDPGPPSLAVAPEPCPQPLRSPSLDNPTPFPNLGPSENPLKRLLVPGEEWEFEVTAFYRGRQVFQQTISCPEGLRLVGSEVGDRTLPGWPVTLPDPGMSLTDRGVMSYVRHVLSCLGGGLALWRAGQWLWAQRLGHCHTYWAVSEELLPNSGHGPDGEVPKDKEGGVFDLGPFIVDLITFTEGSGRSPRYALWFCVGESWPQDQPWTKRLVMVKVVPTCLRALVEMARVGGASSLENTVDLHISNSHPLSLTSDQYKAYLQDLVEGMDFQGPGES
The test can be described thus: co-IP; HEK293T cells with IRF3-Myc and wild type or mutant vIRF1-Flag; anti-Myc immunoprecipitation, blot with anti-Flag; bands quantified, normalised to IRF3-Myc.

Test [2] deals with STING-Myc (UniProt Q86WV6). Description: co-IP; HEK293T cells with STING-Myc and wild type or mutant vIRF1-Flag; anti-Myc immunoprecipitation, blot with anti-Flag; bands quantified, normalised to STING-Myc.
The target of test [3] is HA-tagged CBP (CBP-HA) (UniProt Q92793). Description: co-IP; THP-1 cells with IRF3-Myc, lentiviral vIRF1-Flag or pHAGE, p300-HA or CBP-HA; UBCS039 80 μM or DMSO 24 h; anti-HA immunoprecipitation, blot with anti-Myc.
The target in test [4] is HA-tagged p300 (p300-HA) (UniProt Q09472). The test is described as above.
Test [5] has as its target HA-tagged CBP (CBP-HA) (UniProt Q92793). The test can be described thus: co-IP; HEK293T cells with IRF3-Myc, p300-HA or CBP-HA, and wild type or mutant vIRF1-Flag or pHAGE, with or without SIRT6-Myc; anti-HA immunoprecipitation, blot with anti-Myc; bands quantified.
Test [6] deals with HA-tagged p300 (p300-HA) (UniProt Q09472). Described as above.

On to “vIRF1 with Lys406 mutated to arginine, Flag-tagged (vIRF1-K406R-Flag) (from UniProt F5HF68 1-449)”, for which the binding entry in test [1] and in test [2] was “no binding” in each case.

Regarding “vIRF1 with Lys442 mutated to arginine, Flag-tagged (vIRF1-K442R-Flag) (from UniProt F5HF68 1-449)”, the binding entry in test [1] and in test [2] was “no binding” in each case.

B1: Myc-tagged IRF3 (IRF3-Myc) (protein, UniProt Q14653 1-427)
chain: MGTPKPRILPWLVSQLDLGQLEGVAWVNKSRTRFRIPWKHGLRQDAQQEDFGIFQAWAEATGAYVPGRDKPDLPTWKRNFRSALNRKEGLRLAEDRSKDPHDPHKIYEFVNSGVGDFSQPDTSPDTNGGGSTSDTQEDILDELLGNMVLAPLPDPGPPSLAVAPEPCPQPLRSPSLDNPTPFPNLGPSENPLKRLLVPGEEWEFEVTAFYRGRQVFQQTISCPEGLRLVGSEVGDRTLPGWPVTLPDPGMSLTDRGVMSYVRHVLSCLGGGLALWRAGQWLWAQRLGHCHTYWAVSEELLPNSGHGPDGEVPKDKEGGVFDLGPFIVDLITFTEGSGRSPRYALWFCVGESWPQDQPWTKRLVMVKVVPTCLRALVEMARVGGASSLENTVDLHISNSHPLSLTSDQYKAYLQDLVEGMDFQGPGES
Turning to B1, the binding entry in test [3], in test [4], in test [5] and in test [6] was “binds” in each case.
